Test results reported in patent publication US11560559B2, “Inducing production of full-length progranulin (GRN) from nucleotides including mutations containing a premature stop codon (PTC)” (University of Kentucky Research Foundation, priority 2018, dated 2023).
At least one structure is not confirmed: it was looked up by name or label, or the drawing left a doubt.

System: R493X progranulin
Test: Read-through of progranulin R493X nonsense mutation in transfected N2A cells (FLAG Western blot)
Type: cell-based, human
Conditions: N2A cells transfected with R493X progranulin, two concentrations of each compound, 24 hours
Text: The WT progranulin plasmid with a C-terminal FLAG tag (pC-Flag-PGRN-WT) was purchased from Sino Biological Inc. (Cat. HG10826-CF). Three nonsense mutations, Q125X, R229X and R493X, were generated using Q5 site-directed mutagenesis kit (New England Biolabs Inc., Cat. E0554S) to introduce a single nucleotide substitution in the WT progranulin gene (FIG. 1A). The WT progranulin with an N-terminal HA tag (HA-PGRN) was also generated by subcloning using the p3xHA vector (58) and HindIII and BamHI sites.
N2A cells were maintained in DMEM (Sigma, D5796) supplemented with 10% fetal bovine serum, 100 unit/mL penicillin, and 100 μg/mL streptomycin. […]
WT progranulin and three plasmids each with a single nonsense mutation (Q125X, Y229X, or R493X) and a C-terminal Flag tag (FIG. 1A) were constructed. A full-length protein must be generated for the FLAG to be detected, thus a truncated progranulin will not be detected by FLAG Western blotting. If read-through of the progranulin PTC occurs, then progranulin will be detectable by FLAG Western blotting.
R493X, which is the most common nonsense mutation in progranulin-mediated familial FTD (8, 31), was chosen to test whether aminoglycosides could induce read-through. […] Cells were lysed and analyzed by Western blotting to determine the amount of progranulin protein. […]

## NC[C@H]1O[C@H](O[C@H]2[C@H](O)[C@@H](O[C@H]3O[C@H](CO)[C@@H](O)[C@H](N)[C@H]3O)[C@H](N)C[C@@H]2N)[C@H](O)[C@@H](O)[C@@H]1O [kanamycin]
  read-through of R493X progranulin (FLAG-positive bands in Western blot): did not have any detectable read-through effect
